14 compounds from the supplement of paper PMC6821926, “Diaminoquinazoline MMV675968 from Pathogen Box inhibits Acinetobacter baumannii growth through targeting of dihydrofolate reductase” (Scientific Reports, 2019) can be followed below.

The subject of assay [1] is Acinetobacter baumannii Mahidol. Put plainly: percent growth relative to DMSO-treated control; higher = less growth inhibition. The following applies: 10 µM; 18 h.
The test system of assay [2] is Acinetobacter baumannii Naval-81. Described as above. The following applies: 10 µM; 18 h.

± gives the uncertainty stated by the source. This is one part of the list.

`CO/C=C(/C(=O)OC)c1ccccc1Oc1cc(Oc2ccccc2C#N)ncn1`: the percent growth was found to be 125 ± 17% in assay [1] and 85.9 ± 21% in assay [2].
On to `CO/N=C(\C(=O)OC)c1ccccc1CO/N=C(\C)c1cccc(C(F)(F)F)c1`, for which the results for the percent growth in assay [1] and in assay [2] were 99.8 ± 4.4% and 90.1 ± 14%, respectively.
In the case of `CC1COC(Cn2cncn2)(c2ccc(Oc3ccc(Cl)cc3)cc2Cl)O1` (stereo not drawn), the percent growth in assay [1] is 90.6 ± 14%; in assay [2], 52.5 ± 24%.
Consider `Cc1nn(Cc2ccccc2)c(Cl)c1C(=O)NC1CCCCCC1`, for which the percent growth in assay [1] stood at 91.8 ± 43%; in assay [2], 82.3 ± 13%.
In the case of `Cc1nn(C)c(C)c1NS(=O)(=O)c1c(Cl)cc(-c2ccnc(N3CCNCC3)c2)cc1Cl`, the percent growth is 99.5 ± 7.1% in assay [1] and 103 ± 4% in assay [2].
As to `O=C1O[C@@H](CO)CN1c1cc(F)c(C2=CCN(Cc3ccccc3)CC2)c(F)c1`, the values for the percent growth in assay [1] and in assay [2] were 96.3 ± 3.9% and 97.9 ± 16%, respectively.
Taken in the same sequence, the figures for `CC1(C)OB(O)c2ccc(C3=NOC(c4cc(Cl)c(F)c(Cl)c4)(C(F)(F)F)C3)cc21` (stereo not drawn) were 84 ± 16% and 50.5 ± 47%.
For `CO[C@@H]1CN(c2ccc(C#CC3(O)CN4CCC3CC4)c(Cc3ccccc3)n2)C[C@H]1O` (stereo partly drawn), the percent growth in assay [1] came out at 107 ± 8.6%; in assay [2], 71 ± 41%.
In the same order, the values of `Cc1cc(C2=NOC(c3cc(Cl)c(F)c(Cl)c3)(C(F)(F)F)C2)ccc1C(=O)NCc1ccc2c(c1)C(C)(C)OB2O` (stereo not drawn) are 85.8 ± 34% and 84.9 ± 14%.
`CCc1nn(C)c(C(=O)NCc2ccc(Oc3ccc(C)cc3)cc2)c1Cl`: the results for the percent growth in assay [1] and in assay [2] were 71.2 ± 32% and 89 ± 2.9%, respectively.
In the case of `Nc1c2c(nc3sc4c(c13)CCCC4)CCCC2`, the percent growth in assay [1] was 106 ± 16%; in assay [2], 104 ± 35%.
In the same order, the values of `CC(C)(C)C(O)C(Oc1ccc(-c2ccccc2)cc1)n1cncn1` (stereo not drawn) are 95.3 ± 12% and 113 ± 32%.
Taken in the same sequence, the figures for `Cc1cccc(C(=O)Nc2ccnc(N(C)C3CCN(CC(C)C)CC3)c2)c1` were 87.1 ± 11% and 80.2 ± 7.9%.
In the same order, the values of `O=C1O[C@@H](COc2ccon2)CN1c1cc(F)c(C2=CCN(Cc3ccccc3)CC2)c(F)c1` are 98.7 ± 5.3% and 79.7 ± 5.4%.
